{
  "source": "paper PMC12040169",
  "about": "(PLOS Biology, 2025)",
  "note": "This is one part of the list.",
  "data": [
    {"system": "T1, CTL2-GFP (C. trachomatis L2/434/Bu, GFP-expressing)", "T1 construct": "L2/434/Bu, GFP-expressing", "set-up": "species or system HeLa; Intracellular C. trachomatis growth in HeLa cells, bulk GFP fluorescence relative to DMSO", "settings": "bulk GFP, single well; 28.5 h, 10 µM; inhibitor", "units": {"% of control remaining": "%"}, "values": [
      {"smiles": "Cc1nc2c(c(=O)[nH]1)CC[C@@H]1CN(C(=O)CCc3ccccc3)C[C@H]21", "note": "[CBK284414]", "% of control remaining": 105.846},
      {"smiles": "CC(C)(C)c1ccc(OCC(=O)Nc2ccc(OCC(=O)O)cc2)cc1", "note": "[CBK287013]", "% of control remaining": 107.739},
      {"smiles": "Cc1cc(NC(=O)C2CCCC2)nc2c1c(=O)oc1ccccc12", "note": "[CBK287438]", "% of control remaining": 141.547},
      {"smiles": "CCC1CCCCN1C(=O)Cc1c(C)nc(-c2cccnc2)[nH]c1=O", "note": "(stereo not shown) [CBK306240]", "% of control remaining": 143.232},
      {"smiles": "CC(C)NC(=O)c1ccc(-n2cccn2)c(C#Cc2cccnc2)c1", "note": "[CBK284523]", "% of control remaining": 159.206},
      {"smiles": "Nc1ncc(-c2cccc(-c3ccccc3)c2)nc1N1CCN(CCO)CC1", "note": "[CBK063410]", "% of control remaining": 136.843},
      {"smiles": "COC(=O)c1c(NC(=O)CSc2nnc3ccccn23)sc(C)c1C", "note": "[CBK265943]", "% of control remaining": 123.338},
      {"smiles": "c1cnn(CC2CCCN2c2ncnc3sc4c(c23)CCNC4)c1", "note": "(stereo not shown) [CBK307490]", "% of control remaining": 126.639},
      {"smiles": "NC(=O)c1ccc(-c2cnc3[nH]c(=O)n(CCCN4CCOCC4)c3n2)cc1", "note": "[CBK065092]", "% of control remaining": 184.62},
      {"smiles": "Cc1nc(-c2ccccc2)sc1CNC(=O)CCC(F)(F)F", "note": "[CBK092365]", "% of control remaining": 116.722},
      {"smiles": "Cc1cc(NCc2ccccc2)nc2[nH]nc(N)c12", "note": "[CBK287931]", "% of control remaining": 123.503},
      {"smiles": "Cc1ccc([N+](=O)[O-])cc1S(=O)(=O)n1ccc2c(N3CCNCC3)nccc21", "note": "[CBK059068C]", "% of control remaining": 132.706},
      {"smiles": "CCCCC1C(=O)N(C)CCN1C(=O)c1cc(C)c(CC)n(C)c1=O", "note": "(stereo not shown) [CBK306527]", "% of control remaining": 120.479},
      {"smiles": "NNC(=O)CN(CCc1ccccc1)S(=O)(=O)c1ccc(Cl)cc1", "note": "[CBK263754]", "% of control remaining": 130.775},
      {"smiles": "Cc1ccc(S(=O)(=O)NCC(=O)Nc2ccc(Cl)cn2)cc1", "note": "[CBK091357]", "% of control remaining": 98.2716},
      {"smiles": "COc1ccc(S(=O)(=O)N2Cc3ccccc3CC2C(=O)Nc2ccc(O)cc2)cc1OC", "note": "(stereo not shown) [CBK293967]", "% of control remaining": 126.976},
      {"smiles": "Cc1cc(C(=O)N2CCC(C(=O)NC(c3ccccc3)c3ccc4ccccc4n3)CC2)no1", "note": "(stereo not shown) [CBK059641]", "% of control remaining": 103.136},
      {"smiles": "COc1cccc(CN2C(=O)CC3(C2=O)C(=O)N(Cc2ccc4ccccc4n2)c2ccccc23)c1", "note": "(stereo not shown) [CBK076016]", "% of control remaining": 98.0451},
      {"smiles": "Cc1noc(-c2ccccc2)c1CN1CCCN(S(=O)(=O)c2ccc(C(F)(F)F)cc2Cl)CC1", "note": "[CBK063104]", "% of control remaining": 73.1801},
      {"smiles": "O=C(O)c1nccnc1C(=O)N1CCN(c2ccc(Cl)cc2)CC1", "note": "[CBK286826]", "% of control remaining": 124.334},
      {"smiles": "O=C(CC1NC(=O)NC1=O)Nc1cccc2ccccc12", "note": "(stereo not shown) [CBK267164]", "% of control remaining": 172.742},
      {"smiles": "COc1cc(-c2cnc(N)c(N3CCN(CCN(C)C)CC3)n2)cc(OC)c1OC", "note": "[CBK063488]", "% of control remaining": 133.333},
      {"smiles": "Cc1nn2c(C)c(C(=O)Nc3ccccc3)nnc2c1-c1ccccc1", "note": "[CBK270198]", "% of control remaining": 161.162},
      {"smiles": "COc1ccc(-c2cc(C(=O)Nc3ccc(OC(F)(F)F)cc3)cnc2-c2ccccc2)cn1", "note": "[CBK036621]", "% of control remaining": 109.459},
      {"smiles": "Cc1cc2c(s1)c1cnn(Cc3ccccn3)c(=O)c1n2C", "note": "[CBK284227]", "% of control remaining": 183.569},
      {"smiles": "Cc1nn(C)cc1C(=O)N1CCCC1c1nc2ccccc2[nH]1", "note": "(stereo not shown) [CBK282371]", "% of control remaining": 128.492},
      {"smiles": "O=c1[nH]c2ncc(-c3ccsc3)nc2n1CCCO", "note": "[CBK065044]", "% of control remaining": 93.2496},
      {"smiles": "O=C(Nc1nc2ccccc2[nH]1)c1cccc(N2CCCS2(=O)=O)c1", "note": "[CBK304584]", "% of control remaining": 137.434},
      {"smiles": "CC1=C[C@@H](CO)[C@H](C(C)C)C[C@H]1Cc1nnc(-c2ccncc2)o1", "note": "[CBK289222]", "% of control remaining": 104.146},
      {"smiles": "Cc1ccc(CNC(=O)CCC(=O)O)cc1", "note": "[CBK058951]", "% of control remaining": 111.466},
      {"smiles": "COC(=O)c1cc(S(=O)(=O)N2c3ccccc3CC2C)cn1C", "note": "(stereo not shown) [CBK304384]", "% of control remaining": 108.072},
      {"smiles": "CC(C)C[C@H](NC(=O)COc1ccc2nc3n(c(=O)c2c1)CCCCC3)C(=O)O", "note": "[CBK286656]", "% of control remaining": 125.392},
      {"smiles": "Nc1nc(CSc2nnc(Cc3ccc([N+](=O)[O-])cc3)n2-c2ccccc2)cs1", "note": "[CBK267408]", "% of control remaining": 140.784},
      {"smiles": "Cc1cc2oc(C(=O)Nc3sc4c(c3C(=O)NC3CCS(=O)(=O)C3)CCC(C)C4)c(C)c2cc1C", "note": "(stereo not shown) [CBK266351]", "% of control remaining": 222.37},
      {"smiles": "Cc1nc(CN2CCN(c3cccc(C(F)(F)F)n3)CC2)cs1", "note": "[CBK304709]", "% of control remaining": 110.873},
      {"smiles": "C/C(=N/NC(N)=S)c1ccccc1OCC(=O)O", "note": "[CBK007123]", "% of control remaining": 66.8667},
      {"smiles": "CN(C)c1ccc(-c2nc(C(F)(F)F)nn2C)cn1", "note": "[CBK307202]", "% of control remaining": 157.321},
      {"smiles": "Cn1ccnc1C1(O)CCN(C(=O)c2ccccc2F)CC1", "note": "[CBK283536]", "% of control remaining": 79.8051},
      {"smiles": "CCNC(=O)N1CC2(CCN(Cc3nc4ccccc4[nH]3)CC2)c2ccccc21", "note": "[CBK126693]", "% of control remaining": 48.6187},
      {"smiles": "COc1ccc(OCC(=O)Nc2ccc(CN3CCOCC3)cc2)cc1", "note": "[CBK269686]", "% of control remaining": 97.7786},
      {"smiles": "Cc1ccc(-n2ncc3c(Nc4c(C)n(C)n(-c5ccccc5)c4=O)ncnc32)c(C)c1", "note": "[CBK294449]", "% of control remaining": 160.453},
      {"smiles": "C[C@H](Nc1cncc(-c2cccc3ccccc23)n1)c1ccccc1", "note": "[CBK065654]", "% of control remaining": 139.879},
      {"smiles": "CC(=O)NC(CC(=O)N1CCc2sccc2C1c1ccccc1)c1ccc(F)cc1", "note": "(stereo not shown) [CBK285548]", "% of control remaining": 75.8187},
      {"smiles": "Cc1nn(C)c(C)c1CN(C)C(=O)CCC(C)N1CCCC1", "note": "(stereo not shown) [CBK282001]", "% of control remaining": 92.5926},
      {"smiles": "CN(Cc1nc(-c2ccncc2)no1)S(=O)(=O)c1ccc(Br)cc1", "note": "[CBK268598]", "% of control remaining": 108.223},
      {"smiles": "COc1ccc(CNc2cncc(-c3cncc(OC)c3)n2)cc1", "note": "[CBK065388]", "% of control remaining": 163.447},
      {"smiles": "COc1ccc(C(NC(=O)c2ccc(Cn3nc(C)cc3C)o2)c2ccccc2)cc1", "note": "(stereo not shown) [CBK285578]", "% of control remaining": 123.317},
      {"smiles": "Cc1c(-c2ccc(N(C)C)nc2)c(C(F)(F)F)nn1C", "note": "[CBK307320]", "% of control remaining": 153.65},
      {"smiles": "Cc1n[nH]c(=O)c2nc(-c3ccc(=O)[nH]n3)[nH]c12", "note": "[CBK008745]", "% of control remaining": 118.322}
    ]}
  ]
}
